# Where “and” joins values, the source holds several entries; their conditions need not be identical. Equal entries are not always repeated. Screen size: about 300,000 compounds; about 5,400 (1.8%) were called active. Inconclusive results, whose numbers are uncertain, are shown with a selection of clear calls. Calls come from the whole dose curve; tested in HEK293 cells. A potency beside an inconclusive call is a rough fit, not a confirmed value.
# Assay: qHTS for inhibitors of binding or entry into cells for Marburg Virus
# Details: Marburg virus pseudotyped entry inhibition, cell reporter; activity change, negative = inhibition: at 37.8 µM (top of the series) unless noted
# % is set by controls: 0 for no effect and ±100 for the full control effect; potency is the fitted concentration of half-maximal effect.
SMILES,Potency,"activity change, negative = inhibition"
COc1cc(OC)c(C(=O)NC2CCCc3ccccc32)cc1OC (stereo unspecified),"inconclusive: 35.5 µM [inhibitor, single point]",
CC(=O)N(C)C1=Nc2ccc(Cl)cc2C(c2ccccc2)=[N+]([O-])C1,"inconclusive: 2.24 µM [inhibitor, single point]",
CS(=O)(=O)Nc1ccccc1C(=O)N1CCOCC1,"inconclusive: 5.01 µM [activator, single point]",
CCOC(=O)c1ccc(NC(=O)N2CCN(C(=O)c3ccco3)CC2)cc1,,inactive: -0.784%
O=[N+]([O-])c1ccc(N2CCNCC2)cc1Sc1nc2ccccc2[nH]1,"inconclusive: 22.4 µM [inhibitor, single point]",
Cc1cccc(NC(=S)NCc2ccccn2)c1,,inactive: 6.37%
COc1ccc(C(O)P(=O)(OC2CCCCC2)c2ccc(N(C)C)cc2)cc1OC (stereo unspecified),,inactive: -3.94%
COc1ccccc1C(=O)Nc1ccc2ccccc2c1,"inconclusive: 1 µM [activator, full curve, poor fit]",
Cc1ccccc1-c1nc(CN2CCC(C(=O)NCCC3=CCCCC3)CC2)c(C)o1,"inconclusive: 6.51 µM [inhibitor, partial curve, poor fit]",
O=C1CCCCC1Nc1ccc(Br)cc1 (stereo unspecified),"inconclusive: 0.501 µM [activator, partial curve, poor fit]",
O=C(Nc1nnc(COc2ccccc2F)s1)Nc1ccccc1F,"inconclusive: 22.4 µM [inhibitor, single point]",
Cc1ccc(S(=O)(=O)c2cnc(-c3ccccc3)nc2N2CCCCC2)cc1,"inconclusive: 20.6 µM [inhibitor, single point]",
COc1ccc(NC2c3ccccc3C(=O)N2Cc2ccc3c(c2)OCO3)cc1 (stereo unspecified),"inconclusive: 11.2 µM [inhibitor, partial curve, poor fit]",
Cn1c(=O)c2c(nc(NCCO)n2CCc2ccccc2)n(C)c1=O,"inconclusive: 0.461 µM [inhibitor, full curve, poor fit]",
CCn1c(C(=O)NCCc2ccc(OC)c(OC)c2)cc2sc(Cl)cc21,"inconclusive: 11.2 µM [inhibitor, partial curve, poor fit]",
COc1cc(C2c3cc4c(cc3CC3COC(=O)C32)OCO4)cc(OC)c1O (stereo unspecified),"inconclusive: 0.126 µM [inhibitor, full curve, poor fit]",
COc1ccccc1CNC(=O)c1nccnc1CO,"inconclusive: 2 µM [inhibitor, partial curve, poor fit]",
COc1ccc(CCNS(=O)(=O)c2ccc3c(c2)NC(=O)C(C)S3)cc1OC (stereo unspecified),"inconclusive: 0.794 µM [inhibitor, full curve, poor fit]",
CN(C)CCOC1c2ccccc2C=Cc2ccccc21,"inconclusive: 11.2 µM [inhibitor, partial curve, poor fit]",
c1ccc2oc(SCc3nc4ccccc4s3)nc2c1,"inconclusive: 10 µM [inhibitor, partial curve, poor fit]",
CC1CCN(S(=O)(=O)c2cn(CC(=O)Nc3cccc(C(F)(F)F)c3)c(=O)c3ccccc23)CC1,"inconclusive: 11.2 µM [inhibitor, partial curve, poor fit]",
O=C(Nc1ccccc1C(=O)NC(Cc1ccc(O)cc1)C(=O)O)c1ccccc1 (stereo unspecified),,inactive: -0.193% [at 46.1 µM]

SMILES,Potency,"activity change, negative = inhibition"
COc1ccc(C)cc1NC(=O)CN1CCN(c2ccccc2F)CC1,"inconclusive: 14.1 µM [inhibitor, single point]",
COc1ccc(C2CC(=O)c3cc(-c4nc(-c5cccc(Cl)c5)cs4)c(=O)[nH]c3C2)cc1OC (stereo unspecified),,inactive: -0.654% [at 46.1 µM]
O=C(c1ccc2ncsc2c1)N1CCN(c2ccccc2Cl)CC1,"inconclusive: 5.62 µM [activator, partial curve, poor fit]",
Cc1nc(NC(=O)c2ccccc2)sc1Cc1ccc2c(c1)OCO2,"inconclusive: 8.91 µM [inhibitor, partial curve, poor fit]",
Cc1cccc(C)c1NC(=O)C(=O)NCCc1c[nH]c2ccccc12,"inconclusive: 3.55 µM [inhibitor, full curve]",
Cc1cccc(NC(=S)N(CCCN(C)C)Cc2cc3cc4c(cc3[nH]c2=O)OCO4)c1,"inconclusive: 8.91 µM [inhibitor, partial curve, poor fit]",
CCN(CC)CCNC(=S)N1CCn2c(nc3ccccc32)C1,"inconclusive: 17.8 µM [inhibitor, single point]",
c1ccc2nc3c(nc2c1)[nH]c1ccccc13,"inconclusive: 29.1 µM [inhibitor, single point]",
CCOc1ccc(C2C(C(=O)O)CCC(=O)N2C2CCCCC2)cc1 (stereo unspecified),"inconclusive: 0.631 µM [inhibitor, full curve, poor fit]",
CCC(=O)N1CCc2cc(Br)cc(S(=O)(=O)N3CCC(C(=O)NCCCOC(C)C)CC3)c21,"inconclusive: 3.16 µM [activator, partial curve, poor fit]",
CCOC(=O)c1ccc(NC(=O)c2c(-c3c(F)cccc3Cl)noc2C)cc1,,inactive: -19.9% [at 46.1 µM]
O=C1N=C(N2CCc3ccccc3C2)S/C1=C\c1cccc(O)c1,,inactive: 23.9%
CC1CCCN(C(=O)CSc2nnc(-c3c[nH]c4ccccc34)o2)C1 (stereo unspecified),,inactive: 5.81%
CC1CCN(S(=O)(=O)c2cn(CC(=O)N3CC(C)CC(C)C3)c(=O)c3ccccc23)CC1 (stereo unspecified),"inconclusive: 0.326 µM [inhibitor, full curve, poor fit]",
CC(CCN1CC1)=NNC(=O)Nc1cccc2ccccc12,"inconclusive: 14.1 µM [inhibitor, single point]",
CCCCN(C)c1nc2c(S(=O)(=O)c3ccc(CC)cc3)nnn2c2ccc(Cl)cc12,"inconclusive: 5.62 µM [inhibitor, single point]",
O=C(NCC(=O)N(c1cccc(F)c1)C(C(=O)NC1CCCC1)c1ccco1)c1ccco1 (stereo unspecified),,inactive: -7.45% [at 46.1 µM]
COc1ccc(OC(=O)c2cccc(S(=O)(=O)N3CC(C)OC(C)C3)c2)cc1 (stereo unspecified),"inconclusive: 35.5 µM [inhibitor, single point]",
CCCCc1n[nH]c2c1/C(=N/O)CC(c1ccccc1)C2 (stereo unspecified),"inconclusive: 12.6 µM [inhibitor, single point]",
O=C(CCNS(=O)(=O)c1ccccc1)Nc1ccc(Cl)cc1C(=O)c1ccccc1,active: 8.91 µM,
CC(=O)N1CCc2cc(Br)cc(S(=O)(=O)N3CCN(c4cccc(C(F)(F)F)c4)CC3)c21,,inactive: 11.6% [at 46.1 µM]
CCOc1ccc(S(=O)(=O)Nc2cccc(C(=O)NCC3CCCO3)c2)cc1 (stereo unspecified),"inconclusive: 2.82 µM [inhibitor, full curve, poor fit]",

# Retrieved by compound from above (three):
SMILES,Potency,"activity change, negative = inhibition"
Cc1cccc(NC(=S)N(CCCN(C)C)Cc2cc3cc4c(cc3[nH]c2=O)OCO4)c1,"inconclusive: 8.91 µM [inhibitor, partial curve, poor fit]",
O=C(Nc1ccccc1C(=O)NC(Cc1ccc(O)cc1)C(=O)O)c1ccccc1 (stereo unspecified),,inactive: -0.193% [at 46.1 µM]
CS(=O)(=O)Nc1ccccc1C(=O)N1CCOCC1,"inconclusive: 5.01 µM [activator, single point]",

# Later entries.

SMILES,Potency,"activity change, negative = inhibition"
COCCn1c(-c2ccccc2Cl)nc2c(c(=O)c3ccccc3n2C)c1=O,"inconclusive: 35.5 µM [inhibitor, single point]",
CCn1c(C)c2c(C)nnc(C)c2c1C,,inactive: 8.5%
O=C1C=CC(=O)C2C1C1(Cl)C(Cl)=C(Cl)C2(Cl)C1(Cl)Cl (stereo unspecified),"inconclusive: 22.4 µM [inhibitor, single point]",
O=C(Nc1nccs1)c1ccc2ccccc2n1,"inconclusive: 12.6 µM [inhibitor, single point]",
Cc1nn(Cc2ccc(F)cc2)c2sc(C(=O)Nc3ccc(N4CCOCC4)cc3N3CCOCC3)cc12,"inconclusive: 31.6 µM [inhibitor, single point]",
CC1(C(=O)N/N=C/c2ccc([N+](=O)[O-])o2)CC1(Br)Br (stereo unspecified),"inconclusive: 15.8 µM [inhibitor, partial curve, poor fit]",
Cc1noc(C)c1CN(C(=S)NC1CC2CCC1C2)c1ccccc1 (stereo unspecified),"inconclusive: 12.6 µM [inhibitor, partial curve, poor fit]",
O=C(NCc1ccccn1)Nc1ccc(Br)cc1Cl,"inconclusive: 5.62 µM [activator, single point]",
CCOc1ccc(NC(=O)NCc2c(-n3cccc3)sc3c2CCCC3)cc1,,inactive: -8.7% [at 46.1 µM]
COCCNC(=O)c1ccc(-c2csc(C)n2)cc1,,inactive: 12.8% [at 46.1 µM]
O=C(Cn1c(=O)sc2ccccc21)OC(CCl)CCl,,inactive: 10.2%
CC1(C)[C@H]2CC[C@]1(C)[C@H](NC(=O)CCN1CCCCC1)C2,,inactive: -18.7%
Cc1ccc(Nc2c(-c3cccs3)nc3nc(C)cc(C)n23)cc1,,inactive: 28.2% [at 46.1 µM]
O=C(CCC(=O)N1CCN(c2ccccc2)CC1)Nc1nnc(C2CCCCC2)s1,"inconclusive: 12.6 µM [activator, partial curve, poor fit]",
CC(Sc1nn(-c2ccc(F)cc2)c(=S)s1)C(=O)c1c(N)n(C)c(=O)n(C)c1=O (stereo unspecified),,inactive: -62.9%
CC1=C[C@]2(O[C@H](COc3ccccc3)C1)C(=O)N(C)c1ccccc12,"inconclusive: 3.35 µM [activator, partial curve, poor fit]",
COc1cc(CC(=O)Nc2nc(-c3ccc(F)c(F)c3)cs2)cc(OC)c1OC,active: 7.94 µM,
COc1ccc(-c2cc(C(F)(F)F)nc(S(=O)(=O)CCCC(=O)Nc3cccc(O)c3)n2)cc1OC,"inconclusive: 35.5 µM [inhibitor, single point] and inconclusive: 3.55 µM [inhibitor, partial curve, poor fit]",
CCCSc1nc2c(c(=O)[nH]c(=O)n2C)n1CC(O)COc1ccccc1 (stereo unspecified),"inconclusive: 2.24 µM [inhibitor, partial curve, poor fit]",
COc1ccc(S(=O)(=O)n2oc(=O)cc2-c2ccccc2)cc1,,inactive: 12.1%
CC/C(C)=C1/NC(=O)NC1=O,"inconclusive: 0.562 µM [activator, partial curve, poor fit]",
COCCN(C(C)=O)c1nnc(-c2ccccn2)s1,,inactive: 11.5%

# Source: PubChem BioAssay AID540276 (National Center for Advancing Translational Sciences (NCATS), 2011)
